In PubChem BioAssay AID212 (DTP/NCI, 2004) one finds T/C and survivor count data, which are given here for nine molecules.

The subject of this assay is BDF1 mice, colon carcinoma 38 sc, T/C %. The assay can be described thus: NCI In Vivo Anticancer Drug Screen. Data for tumor model Colon Carcinoma 38 (subcutaneous) in B6D2F1 (BDF1) mice. Conditions: T/C endpoint: median tumor weight (est.), higher T/C = larger tumour. Here is the method: The antitumor activity of compounds was measured in mice bearing transplantable tumors. Survival or tumor size were measured and the results are expressed as the measurement made in the treated group (T) divided by the measurement made in the vehicle treated control group (C). The tumor model used in this assay is Colon Carcinoma 38 (subcutaneous) in B6D2F1 (BDF1) mice

The mark [1] stands for this setting: dose: 12.5 mg/kg/injection, schedule: Q07DX002 (ip), vehicle: Klucel (hydroxypropylcellulose) (HPC), evaluated on day 20.
The mark [2] stands for this setting: dose: 50.0 mg/kg/injection, schedule: Q07DX002 (ip), vehicle: Klucel (hydroxypropylcellulose) (HPC), evaluated on day 20.
Setting [3] is: dose: 100.0 mg/kg/injection, schedule: Q07DX002 (ip), vehicle: Klucel (hydroxypropylcellulose) (HPC), evaluated on day 20.
Setting [4] is: dose: 200.0 mg/kg/injection, schedule: Q07DX002 (ip), vehicle: Klucel (hydroxypropylcellulose) (HPC), evaluated on day 20.
[5] abbreviates: dose: 400.0 mg/kg/injection, schedule: Q07DX002 (ip), vehicle: Klucel (hydroxypropylcellulose) (HPC), evaluated on day 20.

Structures are written as SMILES. The list does not hold the whole screen: it gathers some chemical classes. Not every dose and run of a compound is shown. T/C gives the treated animals as a percentage of the vehicle group. Schedule codes are those of the source, taken here to give the interval after Q, in days (D) or hours (H), and the number of doses after X. Some T/C values carry the count of animals alive at the toxicity check; where neither a count nor a note follows, no animal had died by that day. Some doses were run more than once; the values are given in rising order. Some doses have a count of surviving animals in place of a T/C: the source files T/C as zero there, which appears to mark a toxic dose or a test without result, not a measured value. Survivors were counted at the toxicity check; its day is shown where the source gives one, and later deaths do not show.

On to `ICCN(CCI)c1cccc2ccccc12`, for which the T/C by setting is: (dose: 6.25 mg/kg/injection, schedule: Q07DX002 (ip), vehicle: Klucel (hydroxypropylcellulose) (HPC), evaluated on day 20) 56 % of control; under setting [1], 43 % of control [9 of 10 alive on day 20]. Moreover, the survivor count is given as 6 of 10 on day 20 (dose: 25.0 mg/kg/injection, schedule: Q07DX002 (ip), vehicle: Klucel (hydroxypropylcellulose) (HPC)); 3 of 10 on day 20 (dose: 50.0 mg/kg/injection, schedule: Q07DX002 (ip), vehicle: Klucel (hydroxypropylcellulose) (HPC)); 0 of 10 on day 20 (dose: 100.0 mg/kg/injection, schedule: Q07DX002 (ip), vehicle: Klucel (hydroxypropylcellulose) (HPC)); 0 of 10 on day 20 (dose: 200.0 mg/kg/injection, schedule: Q07DX002 (ip), vehicle: Klucel (hydroxypropylcellulose) (HPC)).
Regarding `CCCCc1ccc(N(CCCl)CCCl)cc1`, the T/C was 95 % of control [9 of 10 alive on day 20] under setting [2], 60 % of control under setting [3], 60 % of control under setting [4] and 44 % of control [9 of 10 alive on day 20] under setting [5]. Also, for the setting “dose: 800.0 mg/kg/injection, schedule: Q07DX002 (ip), vehicle: Klucel (hydroxypropylcellulose) (HPC)”, the survivor count was 0 of 10 on day 20.
With `Cc1ccc(Sc2ccc([N+](=O)[O-])cc2[N+](=O)[O-])c([N+](=O)[O-])c1`, the T/C is 63 % of control (dose: 25.0 mg/kg/injection, schedule: Q07DX002 (ip), vehicle: saline, evaluated on day 21); 90 % of control (dose: 50.0 mg/kg/injection, schedule: Q07DX002 (ip), vehicle: saline, evaluated on day 21); 70 % of control (dose: 100.0 mg/kg/injection, schedule: Q07DX002 (ip), vehicle: saline, evaluated on day 21); 70 % of control (dose: 200.0 mg/kg/injection, schedule: Q07DX002 (ip), vehicle: saline, evaluated on day 21); 59 % of control (dose: 400.0 mg/kg/injection, schedule: Q07DX002 (ip), vehicle: saline, evaluated on day 21); 110 % of control (dose: 800.0 mg/kg/injection, schedule: Q07DX002 (ip), vehicle: saline, evaluated on day 21).
In the case of `CC(=O)OC(SC(OC(C)=O)C(Cl)(Cl)Cl)C(Cl)(Cl)Cl` (stereo unspecified), the T/C reads like this: (dose: 6.25 mg/kg/injection, schedule: Q07DX003 (ip), vehicle: saline with Tween-80, evaluated on day 20) 140 % of control; under setting [1], 121 % of control [9 of 10 alive]; (dose: 12.5 mg/kg/injection, schedule: Q07DX003 (ip), vehicle: saline with Tween-80, evaluated on day 20) 56 % of control; (dose: 25.0 mg/kg/injection, schedule: Q07DX003 (ip), vehicle: saline with Tween-80, evaluated on day 20) 58 % of control; under setting [2], 112 % of control [9 of 10 alive]; (dose: 50.0 mg/kg/injection, schedule: Q07DX003 (ip), vehicle: saline with Tween-80, evaluated on day 20) 117 % of control. For the same molecule, the T/C by setting is: under setting [3], 94 % of control [8 of 10 alive]; (dose: 100.0 mg/kg/injection, schedule: Q07DX003 (ip), vehicle: saline with Tween-80, evaluated on day 20) 84 % of control; under setting [4], 95 % of control [9 of 10 alive]; (dose: 200.0 mg/kg/injection, schedule: Q07DX003 (ip), vehicle: saline with Tween-80, evaluated on day 20) 80 % of control; under setting [5], 128 % of control [7 of 10 alive].
In the case of `CC1(C)CN1P(=O)(Nc1ncccn1)N1CC1(C)C` (stereo unspecified), the T/C was 86 and 140 % of control (dose: 25.0 mg/kg/injection, schedule: Q07DX002 (ip), vehicle: saline, evaluated on day 20); 67 [7 of 10 alive on day 20] and 117 % of control (dose: 50.0 mg/kg/injection, schedule: Q07DX002 (ip), vehicle: saline, evaluated on day 20); 57 and 139 % of control (dose: 100.0 mg/kg/injection, schedule: Q07DX002 (ip), vehicle: saline, evaluated on day 20); 77 and 88 % of control (dose: 200.0 mg/kg/injection, schedule: Q07DX002 (ip), vehicle: saline, evaluated on day 20); 63 and 99 % of control [7 of 8 alive on day 20] (dose: 400.0 mg/kg/injection, schedule: Q07DX002 (ip), vehicle: saline, evaluated on day 20); 52 % of control (dose: 800.0 mg/kg/injection, schedule: Q07DX002 (ip), vehicle: saline, evaluated on day 20). Further, the survivor count (dose: 800.0 mg/kg/injection, schedule: Q07DX002 (ip), vehicle: saline) is recorded as 1 of 8 on day 20.
`NC(=O)Nc1ccc(N(CCCl)CCCl)cc1`: the T/C (dose: 10.0 mg/kg/injection, schedule: Q07DX002 (ip), vehicle: Klucel (hydroxypropylcellulose) (HPC), evaluated on day 20) is 65 % of control [9 of 10 alive on day 20]; the T/C under setting [1] was 155 % of control; the T/C (dose: 20.0 mg/kg/injection, schedule: Q07DX002 (ip), vehicle: Klucel (hydroxypropylcellulose) (HPC), evaluated on day 20) was 56 % of control; the T/C (dose: 25.0 mg/kg/injection, schedule: Q07DX002 (ip), vehicle: Klucel (hydroxypropylcellulose) (HPC), evaluated on day 20) was 110 % of control; the T/C (dose: 40.0 mg/kg/injection, schedule: Q07DX002 (ip), vehicle: Klucel (hydroxypropylcellulose) (HPC), evaluated on day 20) is 55 % of control; the T/C under setting [2] is 104 % of control. Besides, under “dose: 80.0 mg/kg/injection, schedule: Q07DX002 (ip), vehicle: Klucel (hydroxypropylcellulose) (HPC), evaluated on day 20”, the T/C was 41 % of control [9 of 10 alive on day 20]. Further, the survivor count (dose: 160.0 mg/kg/injection, schedule: Q07DX002 (ip), vehicle: Klucel (hydroxypropylcellulose) (HPC)) is 0 of 10 on day 20.
Take `CC(=O)C1=CCCC2CCC1N2` (stereo unspecified): the T/C is, setting by setting: (dose: 200.0 micrograms/kg/injection, schedule: Q07DX002 (ip), vehicle: saline + alcohol, evaluated on day 20) 70 % of control; (dose: 400.0 micrograms/kg/injection, schedule: Q07DX002 (ip), vehicle: saline + alcohol, evaluated on day 20) 46 % of control; (dose: 800.0 micrograms/kg/injection, schedule: Q07DX002 (ip), vehicle: saline + alcohol, evaluated on day 20) 59 % of control.
Turning to `Nc1ccc(N(CCCl)CCCl)cc1`, the T/C is 73 % of control (dose: 1.0 mg/kg/injection, schedule: Q07DX002 (ip), vehicle: Klucel (hydroxypropylcellulose) (HPC), evaluated on day 20); 125 % of control (dose: 2.0 mg/kg/injection, schedule: Q07DX002 (ip), vehicle: Klucel (hydroxypropylcellulose) (HPC), evaluated on day 20); 59 % of control (dose: 4.0 mg/kg/injection, schedule: Q07DX002 (ip), vehicle: Klucel (hydroxypropylcellulose) (HPC), evaluated on day 20). Also, the survivor count is listed as 6 of 10 on day 20 (dose: 8.0 mg/kg/injection, schedule: Q07DX002 (ip), vehicle: Klucel (hydroxypropylcellulose) (HPC)) and 0 of 10 on day 20 (dose: 16.0 mg/kg/injection, schedule: Q07DX002 (ip), vehicle: Klucel (hydroxypropylcellulose) (HPC)).
Turning to `COc1cc2c(c3oc4cccc(O)c4c(=O)c13)[C@@H]1C=CO[C@@H]1O2`, the T/C is, setting by setting: (dose: 12.5 mg/kg/injection, schedule: Q07DX002 (ip), vehicle: saline with Tween-80, evaluated on day 20) 93 % of control; (dose: 25.0 mg/kg/injection, schedule: Q07DX002 (ip), vehicle: saline with Tween-80, evaluated on day 20) 90 % of control; (dose: 50.0 mg/kg/injection, schedule: Q07DX002 (ip), vehicle: saline with Tween-80, evaluated on day 20) 96 % of control [8 of 10 alive]; (dose: 100.0 mg/kg/injection, schedule: Q07DX002 (ip), vehicle: saline with Tween-80, evaluated on day 20) 96 % of control; (dose: 200.0 mg/kg/injection, schedule: Q07DX002 (ip), vehicle: saline with Tween-80, evaluated on day 20) 110 % of control.
